Data taken from the supplement of paper PMC3334620.
The full ranking holds about 33,000 sequences; the median of “E-score (-0.5 to 0.5)” is about -0.0014, and the highest 2% start at about 0.25. This is one part of the list.

Target: T1, Cad1 (UniProt P24813)
T1 sequence: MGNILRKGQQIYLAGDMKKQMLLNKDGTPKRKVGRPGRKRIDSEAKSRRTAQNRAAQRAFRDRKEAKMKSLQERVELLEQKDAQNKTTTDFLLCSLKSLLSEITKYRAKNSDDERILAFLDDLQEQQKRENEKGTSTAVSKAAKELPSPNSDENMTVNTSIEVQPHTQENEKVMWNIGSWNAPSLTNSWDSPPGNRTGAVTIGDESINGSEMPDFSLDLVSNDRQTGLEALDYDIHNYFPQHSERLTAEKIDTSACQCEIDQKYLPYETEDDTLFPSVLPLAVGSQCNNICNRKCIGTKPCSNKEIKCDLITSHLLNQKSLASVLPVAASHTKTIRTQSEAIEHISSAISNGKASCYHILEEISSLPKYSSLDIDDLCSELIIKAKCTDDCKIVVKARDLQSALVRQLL
Experiment: PBM E-score (8-mer binding enrichment) (E-score (-0.5 to 0.5)); higher = stronger / more preferred TF binding
Conditions: protein concentration: 100 nM; construct: GST-full length
In short: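 PURExpress in vitro transcription/translation supplied GST-tagged yeast transcription factors, either full-length or DNA-binding domain. Applied at about 100-200 nM to universal all-10-mer Agilent arrays double-stranded by primer extension, the bound protein was detected with fluorescent anti-GST. E-scores, modified Wilcoxon-Mann-Whitney statistics, were given by the Universal PBM Analysis Suite to ungapped eight-base words pooled with their reverse complements after masliner normalisation.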

| Sequence | PBM E-score |
| --- | --- |
| GATGAATA | 0.193 |
| AGTGGGTG | 0.174 |
| AACCCTGG | -0.00675 |
| ACATATCT | 0.192 |
| ACTTAGCC | 0.0594 |
| AATGTGTG | 0.106 |
| CGCTGTTA | -0.0692 |
| CCTTGACA | -0.082 |
| CTTTTTGA | 0.0534 |
| AACAAAGG | 0.0724 |
| CCGACTTA | 0.151 |
| CCACCACA | -0.15 |
| GTGTCGAA | -0.0248 |
| AGAGTCAG | -0.12 |
| ATTGTGTA | 0.142 |
| AGCAGGAG | -0.238 |
| CACTTGCG | -0.0575 |
| ACAAGCAG | -0.138 |
| CAGTGGAG | -0.0533 |
| CGGCTTCA | 0.173 |
| AGGCGTAG | -0.118 |
| CGCTCGGC | 0.0494 |
| CCCGACCA | 0.0324 |
| ATGTGCGC | 0.173 |

Part of the list above in a different format.
Sequence	PBM E-score
GATGAATA	0.193
AGTGGGTG	0.174
AACCCTGG	-0.00675
ACATATCT	0.192
ACTTAGCC	0.0594
AATGTGTG	0.106
CGCTGTTA	-0.0692
CCTTGACA	-0.082
CTTTTTGA	0.0534
CCGACTTA	0.151
CCACCACA	-0.15
GTGTCGAA	-0.0248
AGAGTCAG	-0.12
ATTGTGTA	0.142
AGCAGGAG	-0.238
CACTTGCG	-0.0575
ACAAGCAG	-0.138
CAGTGGAG	-0.0533
CGGCTTCA	0.173
AGGCGTAG	-0.118
CGCTCGGC	0.0494
CCCGACCA	0.0324
ATGTGCGC	0.173

Some values from above:
In PBM E-score, GTGTCGAA reads -0.0248
In PBM E-score, CGCTGTTA reads -0.0692

(continued)

| Sequence | PBM E-score |
| --- | --- |
| GTCCGCAC | 0.0546 |
| AATAGAAA | -0.0491 |
| CACAAAGC | 0.0826 |
| ACGGACGT | -0.105 |
| CAATTGCA | 0.0314 |
| GATGAGCA | 0.1 |
| TCTGTCCA | 0.075 |
| AGTCCCAT | -0.17 |
| TCAGGGGA | -0.0758 |
| AAATCTCG | 0.157 |
| CAGGAGTA | -0.0237 |
| AGAGTTTC | -0.211 |
| GAACCCTA | -0.0855 |
| CGGATTTC | -0.0539 |
| CCCCGCAA | 0.145 |
| CCACCTTC | -0.229 |
| CAGTGAGG | -0.219 |
| GGTTCGAA | 0.175 |
| CCTCTCAA | -0.0605 |
| GATTGAAC | 0.0844 |
| ACGATATC | 0.119 |
| CCCTTCCA | -0.233 |
| AACCCCGC | -0.159 |
| AATGCTCG | 0.0962 |

| Sequence | PBM E-score |
| --- | --- |
| CAAAAACA | 0.0371 |
| AATTGTTA | 0.0493 |
| CAATAAAC | 0.161 |
| ACCCAACT | 0.0764 |
| ATTGGTAC | 0.0215 |
| ACCGATCA | 0.168 |
| ACTTTGCA | 0.176 |
| CCGTGTTC | 0.12 |
| TACTCAAA | 0.0262 |
| CCAGCCTA | -0.107 |
| AACGAATC | 0.119 |
| TACATGCA | 0.0559 |
| TGCGGAAA | -0.0159 |
| CACTAGAG | 0.0247 |
| AGTCGCGG | -0.179 |
| AACAGCGG | -0.0185 |
| TCTCGAAA | 0.106 |
| GGTGGAAC | 0.0269 |
| CGGGCTAG | -0.0655 |
| ACGTTACA | 0.109 |
| AAGTTAAT | 0.13 |
| AAGTCCCG | -0.0615 |
| AAATTGTC | 0.0649 |
| ACGAGAAA | 0.111 |

| Sequence | PBM E-score |
| --- | --- |
| AGCTTTGC | -0.073 |
| GAGCCTCC | -0.22 |
| TAGATGCA | 0.0548 |
| ACTGTTCC | -0.00445 |
| ACATATCC | 0.161 |
| ACATGAAG | 0.0159 |
| CGCCCCAG | -0.125 |
| CCTTGATC | 0.0457 |
| TTATATAA | 0.427 |
| GAGCATGC | -0.0646 |
| AGCGGCGG | 0.0804 |
| AGCATATA | 0.0244 |
| CACAATGG | 0.14 |
| CATCATTA | 0.235 |
| AGATACAA | 0.256 |
| CTCTACAA | 0.0426 |
| GGGTCAGA | -0.253 |
| AACCGCAC | 0.082 |
| CCAACTGC | -0.0739 |
| ACAGCGGA | 0.0263 |
| AAGCGGGA | -0.0393 |
| CACCGAGA | -0.19 |
